The effect of the compound repeats well; differences between the knockouts mostly do not.
Tested on: HCC-38
Assay: relative cell number vs DMSO control (72 h) (% of DMSO); higher = less growth inhibition (more cells)
Method: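 QMAP-Seq: a pool of 5 breast cancer cell lines (ZR-75-1, SKBR3, HCC-38, MDA-MB-231, BT-20), each carrying 12 doxycycline-inducible Cas9 sgRNA perturbations (11 knockouts plus non-targeting sgNT), was treated with compounds for 72 h at four 10-fold doses (10 nM-10 uM or 1 nM-1 uM range). Barcodes were amplified and sequenced, and cell number was interpolated from 293T spike-in standard curves. The result is expressed as % of the median of DMSO wells. Two biological replicates.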

N[C@@H](CC(=O)N1CCn2c(nnc2C(F)(F)F)C1)Cc1cc(F)c(F)cc1F [Sitagliptin]
Conditions	relative cell number
sgRNA knockout: sgATF3, 10 nM	100
sgRNA knockout: sgATF3, 100 nM	96.8
sgRNA knockout: sgATF3, 1000 nM	105
sgRNA knockout: sgATF3, 10000 nM	93.3
sgRNA knockout: sgATF4, 10 nM	106
sgRNA knockout: sgATF4, 100 nM	95.5
sgRNA knockout: sgATF4, 1000 nM	110
sgRNA knockout: sgATF4, 10000 nM	97.2
sgRNA knockout: sgATF6, 10 nM	107
sgRNA knockout: sgATF6, 100 nM	107
sgRNA knockout: sgATF6, 1000 nM	98.9
sgRNA knockout: sgATF6, 10000 nM	96.2
sgRNA knockout: sgATG7, 10 nM	106
sgRNA knockout: sgATG7, 100 nM	103
sgRNA knockout: sgATG7, 1000 nM	116
sgRNA knockout: sgATG7, 10000 nM	100.5
sgRNA knockout: sgERN1, 10 nM	104
sgRNA knockout: sgERN1, 100 nM	101
sgRNA knockout: sgERN1, 1000 nM	111
sgRNA knockout: sgERN1, 10000 nM	97.9
sgRNA knockout: sgHSF1, 10 nM	125
sgRNA knockout: sgHSF1, 100 nM	110
sgRNA knockout: sgHSF1, 1000 nM	88.8
sgRNA knockout: sgHSF1, 10000 nM	78.3
sgRNA knockout: sgHSF2, 10 nM	108
sgRNA knockout: sgHSF2, 100 nM	118.32
sgRNA knockout: sgHSF2, 1000 nM	109
sgRNA knockout: sgHSF2, 10000 nM	99.9
sgRNA knockout: sgKEAP1, 10 nM	99.7
sgRNA knockout: sgKEAP1, 100 nM	118
sgRNA knockout: sgKEAP1, 1000 nM	103
sgRNA knockout: sgKEAP1, 10000 nM	81.7
sgRNA knockout: sgNFE2L2, 10 nM	96.3
sgRNA knockout: sgNFE2L2, 100 nM	97.9
sgRNA knockout: sgNFE2L2, 1000 nM	109
sgRNA knockout: sgNFE2L2, 10000 nM	92.2
sgRNA knockout: sgSLC35F2, 10 nM	101
sgRNA knockout: sgSLC35F2, 100 nM	102
sgRNA knockout: sgSLC35F2, 1000 nM	117
sgRNA knockout: sgSLC35F2, 10000 nM	92.5
sgRNA knockout: sgXBP1, 10 nM	104
sgRNA knockout: sgXBP1, 100 nM	97.2
sgRNA knockout: sgXBP1, 1000 nM	112
sgRNA knockout: sgXBP1, 10000 nM	101

CC(C)CC(=O)Nc1n[nH]c2c1CN(C(=O)C1CCN(C)CC1)C2(C)C
Conditions	relative cell number
sgRNA knockout: sgATF3, 10 nM	109
sgRNA knockout: sgATF3, 100 nM	78
sgRNA knockout: sgATF3, 1000 nM	44
sgRNA knockout: sgATF3, 10000 nM	21.8
sgRNA knockout: sgATF4, 10 nM	115.7
sgRNA knockout: sgATF4, 100 nM	81.2
sgRNA knockout: sgATF4, 1000 nM	40.5
sgRNA knockout: sgATF4, 10000 nM	20.2
sgRNA knockout: sgATF6, 10 nM	111
sgRNA knockout: sgATF6, 100 nM	82.6
sgRNA knockout: sgATF6, 1000 nM	47.5
sgRNA knockout: sgATF6, 10000 nM	19.7
sgRNA knockout: sgATG7, 10 nM	112
sgRNA knockout: sgATG7, 100 nM	68.9
sgRNA knockout: sgATG7, 1000 nM	42
sgRNA knockout: sgATG7, 10000 nM	16.2
sgRNA knockout: sgERN1, 10 nM	129
sgRNA knockout: sgERN1, 100 nM	76
sgRNA knockout: sgERN1, 1000 nM	43.1
sgRNA knockout: sgERN1, 10000 nM	18.8
sgRNA knockout: sgHSF1, 10 nM	119
sgRNA knockout: sgHSF1, 100 nM	94.3
sgRNA knockout: sgHSF1, 1000 nM	40.7
sgRNA knockout: sgHSF1, 10000 nM	22.2
sgRNA knockout: sgHSF2, 10 nM	130
sgRNA knockout: sgHSF2, 100 nM	87.5
sgRNA knockout: sgHSF2, 1000 nM	44.5
sgRNA knockout: sgHSF2, 10000 nM	20.2
sgRNA knockout: sgKEAP1, 10 nM	134
sgRNA knockout: sgKEAP1, 100 nM	93.2
sgRNA knockout: sgKEAP1, 1000 nM	53.1
sgRNA knockout: sgKEAP1, 10000 nM	26.3
sgRNA knockout: sgNFE2L2, 10 nM	110
sgRNA knockout: sgNFE2L2, 100 nM	77.99
sgRNA knockout: sgNFE2L2, 1000 nM	42.3
sgRNA knockout: sgNFE2L2, 10000 nM	22.2
sgRNA knockout: sgSLC35F2, 10 nM	113
sgRNA knockout: sgSLC35F2, 100 nM	76.7
sgRNA knockout: sgSLC35F2, 1000 nM	42
sgRNA knockout: sgSLC35F2, 10000 nM	20.3
sgRNA knockout: sgXBP1, 10 nM	113
sgRNA knockout: sgXBP1, 100 nM	84.2
sgRNA knockout: sgXBP1, 1000 nM	45.8
sgRNA knockout: sgXBP1, 10000 nM	22.1

Source: the supplement of paper PMC7661543
